# Screening data, single-dose tests

Protein sequences, listed by entry. Tags and fused reporters are not part of them. Residues count along the entry.
UniProt P9WPC5, whole entry: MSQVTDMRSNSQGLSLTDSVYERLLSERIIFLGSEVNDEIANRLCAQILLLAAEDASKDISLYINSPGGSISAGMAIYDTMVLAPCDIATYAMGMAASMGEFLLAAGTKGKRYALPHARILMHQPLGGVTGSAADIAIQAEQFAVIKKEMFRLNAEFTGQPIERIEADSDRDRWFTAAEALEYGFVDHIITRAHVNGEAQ
UniProt P9WPC3, whole entry partner: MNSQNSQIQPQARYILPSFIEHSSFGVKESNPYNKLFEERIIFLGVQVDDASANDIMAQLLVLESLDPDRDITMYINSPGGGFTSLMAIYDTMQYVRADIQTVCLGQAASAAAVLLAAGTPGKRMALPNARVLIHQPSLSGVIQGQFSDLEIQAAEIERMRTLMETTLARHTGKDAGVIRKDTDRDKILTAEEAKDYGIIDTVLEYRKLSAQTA
UniProt P9WNZ1, whole entry: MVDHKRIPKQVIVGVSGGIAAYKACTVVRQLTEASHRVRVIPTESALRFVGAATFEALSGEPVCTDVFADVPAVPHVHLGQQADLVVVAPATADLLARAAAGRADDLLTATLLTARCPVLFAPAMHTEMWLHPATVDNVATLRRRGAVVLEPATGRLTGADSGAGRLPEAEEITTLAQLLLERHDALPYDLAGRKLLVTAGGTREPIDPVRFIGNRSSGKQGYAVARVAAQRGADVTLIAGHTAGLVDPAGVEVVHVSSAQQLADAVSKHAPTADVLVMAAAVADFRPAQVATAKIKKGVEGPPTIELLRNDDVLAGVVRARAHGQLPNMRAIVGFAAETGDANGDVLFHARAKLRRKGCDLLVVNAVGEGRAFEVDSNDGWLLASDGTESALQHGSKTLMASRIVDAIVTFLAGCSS
UniProt Q8IDJ8, 1-583: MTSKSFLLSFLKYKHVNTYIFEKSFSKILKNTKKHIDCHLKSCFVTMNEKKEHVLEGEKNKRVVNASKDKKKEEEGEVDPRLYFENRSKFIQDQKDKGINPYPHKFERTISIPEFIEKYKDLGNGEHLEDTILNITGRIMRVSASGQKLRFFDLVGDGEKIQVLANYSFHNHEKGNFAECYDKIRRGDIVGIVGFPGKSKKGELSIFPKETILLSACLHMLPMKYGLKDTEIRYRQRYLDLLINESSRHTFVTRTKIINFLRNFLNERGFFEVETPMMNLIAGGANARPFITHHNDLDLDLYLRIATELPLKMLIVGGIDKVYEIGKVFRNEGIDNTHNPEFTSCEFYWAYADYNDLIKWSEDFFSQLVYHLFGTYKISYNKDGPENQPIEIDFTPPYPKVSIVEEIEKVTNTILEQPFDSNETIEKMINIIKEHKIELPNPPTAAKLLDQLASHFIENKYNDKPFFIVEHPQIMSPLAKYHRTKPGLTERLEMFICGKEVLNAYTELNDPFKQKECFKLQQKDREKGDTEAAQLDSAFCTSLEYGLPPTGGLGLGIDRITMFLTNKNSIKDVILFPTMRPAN

Measurements from “University of Dundee, Small-Polar-MMV Screening Library” (2021), ChEMBL document CHEMBL3988442.

ClpP1P2: 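ClpP1P2, Mycobacterium tuberculosis (UniProt P9WPC5 and UniProt P9WPC3). Protease assay of ClpP1P2, read by the AMC dye that it sets free. Concentration: 50 µM. Higher reads as stronger inhibition, judged from the few compounds that gave an IC50. Most other retested compounds had strongly negative values. Of about 69,000 compounds tested this way, about 10 (0.015%) reached 50% or more in at least one test.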
CoaBC: 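Enzyme assay of CoaBC with a phosphate dye (Biomol Green) read at 650 nm. Target: Coenzyme A biosynthesis protein CoaBC, Mycobacterium tuberculosis (UniProt P9WNZ1). Tested at 30 µM. Direction is inferred from only a few compounds that gave an IC50; most scored high, so higher reads as stronger inhibition. Most strong results did not repeat in a second test. Of about 67,000 compounds tested this way, about 40 (0.06%) reached 50% or more in at least one test.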
PfKRS1: 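Enzyme assay of the cytosolic lysyl-tRNA synthetase in 384-well plates, read by luminescence. Target: Lysine-tRNA ligase, Plasmodium falciparum 3D7 (UniProt Q8IDJ8). Compounds at 30 µM. Higher reads as stronger inhibition, judged from the few compounds that gave an IC50. Of about 69,000 compounds tested this way, about 49 (0.071%) reached 50% or more in at least one test.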
Leishmania in macrophages: 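Cell assay of Leishmania donovani living inside macrophages; the read-out is not stated. Concentration: 30 µM. The record gives no direction; compounds that gave an IC50 in retests scored well above the rest, so higher reads as stronger inhibition. Of about 69,000 compounds tested this way, about 1,000 (1.5%) reached 50% or more in at least one test.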

Results are given as percent effect.
How 0% and 100% were set is not recorded. Most values in the screen are low, and negative values occur.
This is an unselected part of the compounds tested.
Two or more numbers in one place are separate tests of the same structure; such repeats can differ widely.
A dash means the value is not listed here; it may have been measured.

compound,ClpP1P2,CoaBC,PfKRS1,Leishmania in macrophages
[H][C@@]12CS(=O)(=O)C[C@]1([H])N(Cc1ccncc1)CCN2CCOC,-,-,-,5.666%
OCCC1CCN(c2ccnc3ccsc23)C1 (centres undefined),-5.577%,-15.71%,5.998%,16.27%
Cc1nonc1CN(C)c1nc(-c2ccco2)nc2c1CCN(C)CC2,-4.419%,10.66%,-1.875%,55.96%
Cc1cc(C)c(CCNC(=O)CN2CCCN(C(N)=O)CC2)c(C)c1,-10.29%,-0.6508%,0.7264%,13.4%
CC(=O)Nc1ccc(CNC2CCCSC2)cc1 (centres undefined),-1.527%,-,1.157%,0.7019%
OCCNc1nccc(-c2c[nH]nc2-c2ccco2)n1,15.23%,2.53%,3.864%,9.941% and 19.91%
CNC(=O)Cn1cc(Nc2cccc(F)c2C#N)cn1,-5.233%,2.177%,-3.731%,8.257%
Cc1cc(CNc2cc(Cl)ccc2OCCS(C)(=O)=O)no1,-2.117%,-0.5181%,2.884%,6.818%
Fc1cnc(N2CCn3cc(CNc4ccccn4)nc3C2)nc1.O=C(O)C(F)(F)F.O=C(O)C(F)(F)F,-,-,-,-20.21%
CCc1nnc(N[C@H](C)c2cccc(OC)c2)o1,-2.711%,0%,5.959%,21.21%
CNc1cc(C(=O)NCCC2=CSC3=NCCCN23)ccn1,-79.25%,11.36%,0.326%,21.28%
O=C(C1CCOC1)N1CCC2(CC1)COCCN(Cc1ccncc1)C2 (centres undefined),2.983%,7.293%,-0.8885%,-
CC(C)(CN1CCC2(CCCNC2)C1)N1CCOCC1 (centres undefined),4.915%,-1.392%,0.7287%,-9.001%
COc1nn(C)c2c1CCCN(C(=O)c1ccc3c(c1)OCO3)C2.O=C(O)C(F)(F)F,-,-,-,-10.44%
Cc1nnc(CN2CCCC(CCc3ccccc3C(F)(F)F)C2)o1 (centres undefined),-19.51%,4.968%,18.98%,14.76%
Cc1ccc(Nc2nccc(C3CCN(C(=O)CN)C3)n2)nc1 (centres undefined),11.02%,11.19%,0.2535%,-
[H][C@]12CC[C@](O)(c3cccc(OC)c3)[C@@]1([H])CN(C(=O)c1ccn(C)n1)C2,-,-,-,6.774%
CSc1ccccc1CN1C[C@H]2CC[C@@H]1CN(Cc1[nH]cnc1C)C2,-34.82%,5.839%,2.968%,-
CNS(=O)(=O)c1cccc(S(=O)(=O)Nc2ncc(C)s2)c1,0.0973%,-,7.435%,14.9%
CCn1ncc2c1C(COCC1CC1)N(Cc1c(C)noc1C)CC2.O=C(O)C(F)(F)F.O=C(O)C(F)(F)F (centres undefined),-,-,-,-41.42%
CN(C)CCOCc1cncc2c1CCN(Cc1ccccn1)C2,4.173%,8.235%,1.082%,-
CCSc1ccccc1C(=O)N(CCOC)Cc1ccoc1,-13.79%,2.24%,5.288%,-5.262%
Cn1ccnc1C(=O)NC[C@@H]1OC[C@H]2CN(S(C)(=O)=O)CC[C@H]21,-6.074%,1.724%,5.04%,-
Cc1nc(NCc2nonc2C)cc(C(C)Cn2nc(C)c(C)c2C)n1 (centres undefined),-21.26%,-2.102%,1.039%,4.063%
Oc1cc(CNCCCN2CCCC2)nc2ccc(F)cc12,-0.4772%,0.3659%,2.857%,23.6%
CCNC(=O)N1CCC(OC)c2ccccc2N(CC(=O)NC)C(=O)C1 (centres undefined),1.058%,2.179%,4.499%,0.9263%
Clc1cnc(NCc2ccccc2N2CCOCC2)nc1,-0.3012%,3.418%,6.107%,44.01%
Fc1ccccc1-c1nccnc1C1CCCNC1 (centres undefined),-9.476%,8.035%,1.96%,14%
CCn1c(C2CCCN(Cc3ccc(OC)c(C)c3C)C2)nn(C)c1=O (centres undefined),14.63%,12.45%,5.083%,4.303%
CCc1csc(CNC(=O)C(CC)n2cccn2)n1 (centres undefined),-6.269%,8.132%,-5.288%,24.84%
Cc1cc(C)n(NC(=O)c2ccccc2F)c(=O)c1,13.65%,-2.331%,2.648%,18.47%
CCN(Cc1ccoc1)C(=O)C1CCN(C(=O)OC(C)(C)C)C1 (centres undefined),-7.377%,9.414%,-7.215%,-3.555%
CC(=O)N(C)CC(=O)NC(C)c1ccc(OCCC(C)C)cc1 (centres undefined),-13.69%,-1.272%,1.626%,25.78%
CN1CCCN(S(=O)(=O)c2cn(C)cn2)c2cc(Cl)ccc21,1.514%,-2.686%,3.268%,-1.043%
Cn1cc([C@@H]2CN(S(=O)(=O)c3cccs3)C[C@H]2N)c2ccncc21,-30.83%,8.673%,-1.337%,-
[H][C@@]12CCN(Cc3ccoc3)C[C@@]1([H])O[C@@H](C(=O)NCCOC)C2,-,-,-,0.2179%
Cc1cc(C)n(CC(=O)Nc2cc(-c3ccncc3)[nH]n2)n1,10.81%,2.444%,5.205%,23.81%
CS(=O)(=O)NC1CCN(C(=O)NCCc2ccccn2)CC1,-5.93%,3.611%,-0.6343%,3.381%
COCc1noc(CN2C[C@H](NS(C)(=O)=O)[C@@H](C3CC3)C2)n1,-3.708%,0.7856%,3.504%,4.776%
Cc1nc2cc(C3CCCCN3C(=O)C3CC3)nn2c(O)c1C (centres undefined),-19.12%,-1.166%,1.037%,10.07%
Cc1ncnc2c1CCN(Cc1cccs1)CC2.O=C(O)C(F)(F)F,-,-,-,-10.74%
Cc1c(Cl)cccc1N1CC(c2nnc(N)s2)CC1=O (centres undefined),-27.16%,3.316%,5.119%,1.342%
COc1ccc(CN2CCCC(n3cccn3)C2)c(Cl)c1OC (centres undefined),-5.086%,4.39%,1.259%,14.03%
CC(C)(C)c1cc(=O)n2c(n1)SCC(C(=O)NCc1ccccn1)C2 (centres undefined),-10.44%,-0.9685%,-0.292%,-8.984%
Cc1csc(NC(=O)CN(C)CCOc2cccc(F)c2)n1,25.07%,-2.013%,-1.006%,8.385%
Cc1ncsc1CCC(=O)NCc1csc(N(C)C)n1,-4.465%,1.205%,4.477%,21.72%
COc1c(C)cnc(CN2CCn3c(C)nnc3C2)c1C,-10.9%,2.138%,6.823%,8.197%
CC(NCCCn1cccn1)c1ccc(N2CCCS2(=O)=O)cc1 (centres undefined),-6.023%,-,-3.865%,21.55%
CO[C@@H]1CCN(Cc2ccccn2)[C@@H]2CN(Cc3ccco3)C[C@@H]21,10.15%,2.005%,3.838%,-
O=C(NCCCn1cccn1)C1CCC(=O)N(Cc2ccccc2F)C1 (centres undefined),-13.68%,1.568%,0.2819%,-12.77%
[H][C@@]12OCCN(C(=O)c3nn(C)c4ccccc34)[C@@]1([H])CC[C@H]2OC,-,-,-,19.87%
c1cncc(OCC2CN(Cc3ccco3)Cc3nccn3C2)c1 (centres undefined),-3.458%,11.83%,0.3544%,33.64%
CC1CN(c2ccc(CNC(=O)NCc3ccoc3)cn2)CCO1 (centres undefined),7.472%,1.945%,4.68%,18.05%
CN(C)C(=O)c1cccc(NC(=O)N2CCCC(C(F)(F)F)C2)c1 (centres undefined),0.383%,9.163%,-2.119%,-6.409%
O=C(NCCCn1cncn1)N1CCCCCC1,-24.08%,2.408%,1.002%,20.62%

6 of the entries, repeated:

* Cn1cc([C@@H]2CN(S(=O)(=O)c3cccs3)C[C@H]2N)c2ccncc21 | ClpP1P2: -30.83%; CoaBC: 8.673%; PfKRS1: -1.337%
* [H][C@@]12CS(=O)(=O)C[C@]1([H])N(Cc1ccncc1)CCN2CCOC | Leishmania in macrophages: 5.666%
* [H][C@@]12OCCN(C(=O)c3nn(C)c4ccccc34)[C@@]1([H])CC[C@H]2OC | Leishmania in macrophages: 19.87%
* COc1c(C)cnc(CN2CCn3c(C)nnc3C2)c1C | ClpP1P2: -10.9%; CoaBC: 2.138%; PfKRS1: 6.823%; Leishmania in macrophages: 8.197%
* CNC(=O)Cn1cc(Nc2cccc(F)c2C#N)cn1 | ClpP1P2: -5.233%; CoaBC: 2.177%; PfKRS1: -3.731%; Leishmania in macrophages: 8.257%
* CO[C@@H]1CCN(Cc2ccccn2)[C@@H]2CN(Cc3ccco3)C[C@@H]21 | ClpP1P2: 10.15%; CoaBC: 2.005%; PfKRS1: 3.838%